Data from PubChem BioAssay AID1487 (National Center for Advancing Translational Sciences (NCATS), 2009).
Out of some 200,000 compounds screened, about 25 (0.01%) were called active. The shares of active, inactive and inconclusive entries below differ from those in the screen. Calls follow the shape of the dose curve; as a rule, active = well fitted inhibition curve with a large enough effect in the signal ratio, with a control signal flat (not every such curve was filed as active); inconclusive = small, poorly fitted or top-dose-only effect, or effect the other way, or a change in a side signal; inactive = flat fitted curve, though single readings scatter; the % refers to the signal ratio. A potency beside an inconclusive call is a rough fit, not a confirmed value.
% is scaled to controls: 0 for no effect and ±100 for the full control effect; potency is read from the fitted curve at half-maximal effect.

Experiment: qHTS Assay for Modulators of Lamin A Splicing
Conditions: HeLa LMNA splicing GFP/RFP minigene ratio, 48 h; ratio change, negative = inhibition: at 46.1 µM (top of the series) unless noted
Procedure, shortened: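 S3 HeLa stable clones carrying a lamin A-EGFP splicing minigene plus DsRed2 were seeded at 600 cells/well in Opti-MEM with 2% FBS, pin-dosed and incubated 48 h at 37°C. Acumen cytometry (488 nm) gave the GFP/RFP total-intensity ratio.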
For `Cc1ccccc1C(=O)Nc1ccnc(-c2ccncc2)n1`, the ratio change, negative = inhibition was inconclusive: 7.98% [at 46 µM]. In the case of `CN(C(=O)CN1CCC(NC(=O)C2CCCCC2)CC1)C1CCCCC1`, the “ratio change, negative = inhibition” value is reported as inactive: -12%. With `C=CCOc1ccccc1CN1CCSCC1` the ratio change, negative = inhibition was inconclusive: 16.4%. In the case of `COCC(C)NC(C(=O)Nc1ccc(C)c(Cl)c1)c1ccccc1` (stereo unspecified), the “ratio change, negative = inhibition” value is reported as inactive: 0.468%. In the case of `CC(C)NC(=O)c1nn2c(C(F)(F)F)cc(-c3ccco3)nc2c1Cl`, the “ratio change, negative = inhibition” value is reported as inactive: 20.1% [at 46 µM]. In the case of `COc1cc2c(cc1NC(=O)COC(=O)C(CCSC)NC(=O)c1ccccc1Cl)oc1ccccc12` (stereo unspecified), the ratio change, negative = inhibition is reported as inconclusive: 5.56%. With `Fc1ccccc1N1CC(c2ccccc2)C(c2cccs2)=N1` (stereo unspecified) the ratio change, negative = inhibition was inconclusive: -2.05%. In the case of `CC12CC(NC(=O)N1CCc1ccccc1)c1ccccc1O2` (stereo unspecified), the ratio change, negative = inhibition is reported as inconclusive: -33.7%. For `O=C(CSc1nc(=O)[nH]c2c1CCC2)Nc1cc(C(F)(F)F)ccc1Cl`, the ratio change, negative = inhibition was inconclusive: 0.879% [at 46 µM]. With `COC(=O)Cn1c(=NC(=O)c2ccc(OC)c(OC)c2)sc2cc(OC)ccc21` the “ratio change, negative = inhibition” value was inactive: 5.49%. With `O=C(Cc1ccc(F)cc1)Nc1nnc(SCC(=O)N2CCCCC2)s1` the ratio change, negative = inhibition was inconclusive: -17% [at 46 µM]. For `CC(Sc1nnnn1-c1ccc(Cl)cc1)C(=O)NCC(=O)Nc1ccc(F)c(F)c1F` (stereo unspecified), the Potency was inconclusive: 35.5 µM [fluorescent, single point]. For `CSc1nc(O)c(/C=C2\C=Nc3ccccc32)[nH]1`, the “ratio change, negative = inhibition” value was inactive: -6.07%. For `CNc1nc(-c2ccc(C(=O)N(C)C)cc2)nc2ccccc12`, the “ratio change, negative = inhibition” value was inactive: -4.84%. In the case of `CC(=O)c1cccc(NC(=O)CCn2nc(C)c(S(=O)(=O)N3CCCCC3)c2C)c1`, the “ratio change, negative = inhibition” value is reported as inactive: 16.6% [at 46 µM]. For `Cc1cccc2cc(CN(C(=O)c3cnccn3)C3CCCCC3)c(Cl)nc12`, the “ratio change, negative = inhibition” value was inactive: -9.77%. With `Cc1ccc(NC(=O)Cn2nc(C)c3nn(-c4ccc(Cl)cc4)c(C)c3c2=O)cc1F` the ratio change, negative = inhibition was inconclusive: -21.5% [at 46 µM]. With `CCCCC(=O)NC(=S)Nc1nnn(CCC)n1` the Potency was inconclusive: 5.01 µM [activator, single point]. With `O=C1C=C(c2cccs2)C[C@H](c2ccccc2)[C@H]1n1nnc([N+](=O)[O-])n1` the Potency was inconclusive: 35.5 µM [falling, single point]. In the case of `O=C(NCc1ccccc1)c1ccccc1OCC(=O)N1CCCCC1`, the “ratio change, negative = inhibition” value is reported as inactive: -7.28%. In the case of `Cc1ccccc1NCC(=O)N/N=C/c1ccc([N+](=O)[O-])cc1`, the ratio change, negative = inhibition is reported as inconclusive: 8.99%. For `NC(=O)c1c(NC(NC(=O)c2ccco2)(C(F)(F)F)C(F)(F)F)sc2c1CCCC2`, the “ratio change, negative = inhibition” value was inactive: 6.29%. With `C[C@@]12CCC(=O)C[C@@H]1CC(=O)[C@H]1[C@H]3CCC[C@]3(C)C(=O)C[C@@H]12` (tested in a mixture with another compound) the ratio change, negative = inhibition was inconclusive: -11.8%. With `COc1ccc(C2NC(=S)NC(O)(C(F)(F)F)C2C(=O)c2cccs2)cc1` (stereo unspecified) the ratio change, negative = inhibition was inconclusive: -15.2%. With `COc1ccccc1C/C(N)=N/OC(=O)/C=C/c1ccccc1` the ratio change, negative = inhibition was inconclusive: 2.48% [at 46 µM]. For `CN(C)S(=O)(=O)c1cccc(C(=O)N(Cc2ccc(F)cc2)Cc2ccco2)c1`, the Potency was inconclusive: 35.5 µM [fluorescent, single point]. For `CCOC(=O)c1cc2sccc2n1CC(=O)c1ccc2c(c1)OCCO2`, the ratio change, negative = inhibition was inconclusive: -2.87%. For `N#Cc1ccccc1Cn1c(=O)n(Cc2ccc(C(=O)NCc3ccco3)cc2)c(=O)c2ccccc21`, the ratio change, negative = inhibition was inconclusive: -21.2%. With `CCN(CC)C(=O)c1sc(NC(=O)C(C)C)c(C#N)c1C` the ratio change, negative = inhibition was inconclusive: 2.74% [at 46 µM]. With `O=C1NN(c2ccccc2)C(=O)/C1=C/c1ccc(-c2ccc(Cl)c(C(=O)O)c2)o1` the ratio change, negative = inhibition was inconclusive: -1.84% [at 46 µM]. For `CC(C)(C)OC(=O)N/N=C/c1cccc([N+](=O)[O-])c1`, the ratio change, negative = inhibition was inconclusive: -8.33% [at 9.22 µM]. In the case of `O=C(Nc1ccc(CCC(=O)N2CCCC2)cc1)c1ncn[nH]1`, the “ratio change, negative = inhibition” value is reported as inactive: 7.62%. In the case of `O=C(Nc1ccc(Cl)cc1)[C@@H]1[C@@H]2C(=O)N(c3ccc(Cl)cc3)C(=O)[C@@H]2[C@H]2C=CC=NN21`, the “ratio change, negative = inhibition” value is reported as inactive: -3.7%. For `COc1ccc(CCn2ccc(O)c(Cc3c(F)cccc3Cl)c2=O)cc1OC`, the “ratio change, negative = inhibition” value was inactive: -28.4% [at 46 µM]. For `COc1ccc(S(=O)(=O)NCC2CCCN(CC(C)(C)C)C2)cc1` (stereo unspecified), the ratio change, negative = inhibition was inconclusive: 11.5% [at 46 µM]. For `COc1ccc(C(=O)Nc2cccc(OC)c2)cc1`, the “ratio change, negative = inhibition” value was inactive: 0.77%. With `S=c1[nH]nc(CSc2nc3ccccc3s2)n1Cc1ccccc1` the “ratio change, negative = inhibition” value was inactive: -11.8%. In the case of `CC(=O)c1ccc(NC(=O)C2CCN(S(=O)(=O)c3c(C)noc3/C=C/c3ccc(C)cc3)CC2)cc1`, the ratio change, negative = inhibition is reported as inconclusive: 5.55% [at 46 µM]. In the case of `Cc1ccc(C2=NC(C)(C)N=C2SCC(=O)Nc2ccc(Cl)cc2)cc1`, the “ratio change, negative = inhibition” value is reported as inactive: -17.1%. With `CC(=O)C1C(c2ccc(OC(F)F)cc2)NC(=O)NC1(O)C(F)(F)F` (stereo unspecified) the “ratio change, negative = inhibition” value was inactive: 6.48%. With `CCOC(=O)C(=CN=C(N)Nc1nc2ccccc2o1)C(=O)OCC` the ratio change, negative = inhibition was inconclusive: 24.5% [at 46 µM].
